# Measurements taken from paper PMC9194559.
# By UniProt entry, the sequences of proteins in these tests, tags left out.
# UniProt Q9VXE3: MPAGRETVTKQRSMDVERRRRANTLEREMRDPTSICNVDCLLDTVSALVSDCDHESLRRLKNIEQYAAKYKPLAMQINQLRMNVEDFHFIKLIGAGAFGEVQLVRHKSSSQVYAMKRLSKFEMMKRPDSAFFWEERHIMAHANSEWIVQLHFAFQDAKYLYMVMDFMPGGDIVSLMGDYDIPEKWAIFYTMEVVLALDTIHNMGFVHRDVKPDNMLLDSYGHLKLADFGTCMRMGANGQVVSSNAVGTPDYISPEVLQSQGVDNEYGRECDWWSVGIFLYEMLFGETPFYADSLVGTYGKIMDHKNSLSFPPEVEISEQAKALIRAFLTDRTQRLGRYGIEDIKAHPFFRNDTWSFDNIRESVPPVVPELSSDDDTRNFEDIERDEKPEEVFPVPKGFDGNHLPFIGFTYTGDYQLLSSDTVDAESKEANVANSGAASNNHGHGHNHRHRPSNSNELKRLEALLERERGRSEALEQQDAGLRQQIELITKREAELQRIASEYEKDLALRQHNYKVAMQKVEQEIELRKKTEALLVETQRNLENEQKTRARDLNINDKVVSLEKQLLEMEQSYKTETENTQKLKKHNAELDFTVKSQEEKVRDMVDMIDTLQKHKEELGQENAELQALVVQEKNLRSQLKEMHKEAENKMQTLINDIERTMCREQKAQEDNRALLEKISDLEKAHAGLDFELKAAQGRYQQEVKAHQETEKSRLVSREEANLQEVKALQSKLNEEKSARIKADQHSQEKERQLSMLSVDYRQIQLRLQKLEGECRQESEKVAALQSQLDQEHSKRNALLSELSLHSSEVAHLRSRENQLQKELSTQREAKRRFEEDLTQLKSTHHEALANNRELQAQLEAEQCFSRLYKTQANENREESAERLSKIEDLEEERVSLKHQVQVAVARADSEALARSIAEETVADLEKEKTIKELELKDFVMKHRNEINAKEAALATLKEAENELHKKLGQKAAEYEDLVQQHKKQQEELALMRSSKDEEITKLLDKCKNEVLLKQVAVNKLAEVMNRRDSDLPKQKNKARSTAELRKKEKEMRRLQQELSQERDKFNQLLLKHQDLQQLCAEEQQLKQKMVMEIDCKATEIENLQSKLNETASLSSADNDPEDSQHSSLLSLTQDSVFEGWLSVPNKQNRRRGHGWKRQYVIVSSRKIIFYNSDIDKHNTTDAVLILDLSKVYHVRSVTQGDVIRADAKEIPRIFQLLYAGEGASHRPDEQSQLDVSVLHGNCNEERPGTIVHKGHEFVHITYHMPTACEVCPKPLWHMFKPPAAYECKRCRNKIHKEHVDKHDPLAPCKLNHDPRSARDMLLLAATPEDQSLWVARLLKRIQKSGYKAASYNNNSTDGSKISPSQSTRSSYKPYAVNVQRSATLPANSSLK
# UniProt Q9VQE0: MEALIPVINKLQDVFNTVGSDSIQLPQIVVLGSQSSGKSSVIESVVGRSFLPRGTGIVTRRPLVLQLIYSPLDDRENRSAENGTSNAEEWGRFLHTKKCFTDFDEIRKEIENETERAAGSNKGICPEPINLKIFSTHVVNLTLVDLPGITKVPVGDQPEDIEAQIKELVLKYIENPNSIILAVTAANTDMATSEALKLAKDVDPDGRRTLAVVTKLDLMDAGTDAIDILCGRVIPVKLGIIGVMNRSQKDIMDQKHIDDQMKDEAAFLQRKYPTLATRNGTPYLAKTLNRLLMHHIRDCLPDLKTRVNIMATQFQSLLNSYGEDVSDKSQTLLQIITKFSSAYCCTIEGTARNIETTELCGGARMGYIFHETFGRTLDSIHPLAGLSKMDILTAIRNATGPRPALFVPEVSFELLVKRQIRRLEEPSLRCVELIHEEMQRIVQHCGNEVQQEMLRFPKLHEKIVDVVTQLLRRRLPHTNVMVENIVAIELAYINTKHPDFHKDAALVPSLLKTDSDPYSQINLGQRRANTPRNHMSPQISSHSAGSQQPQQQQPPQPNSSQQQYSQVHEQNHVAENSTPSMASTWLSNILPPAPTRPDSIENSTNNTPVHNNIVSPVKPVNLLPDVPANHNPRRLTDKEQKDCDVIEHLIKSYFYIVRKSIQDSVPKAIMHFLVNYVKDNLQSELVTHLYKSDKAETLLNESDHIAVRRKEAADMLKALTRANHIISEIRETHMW
# Results are given in words; binding and its absence hold for the method and conditions named. Binding seen in cells or lysates may run through a third protein. Some results given as binding are weak or reduced against the parent protein; the word gives no strength.
# Assays:
# [1] = biological target: ROCK-Fg (Drosophila Rho kinase with 3xFg tag) (Drosophila) (UniProt Q9VXE3); assay: co-IP; S2 cells transfected with ROCK-Fg; co-IP performed using the newly generated antibody against Drosophila Drp1; endogenous Drp1
# [2] = biological target: Drp1-HA (Drosophila Drp1 with 3xHA tag) (Drosophila) (UniProt Q9VQE0); assay: co-IP; S2 cells transfected with Drp1-HA and ROCK-Fg; lysates incubated with anti-HA antibody overnight at 4°C, protein A/G agarose beads; immunoblot with anti-Fg
binding [1],binding [2],Substance
binds,,endogenous Drp1 (Drosophila dynamin-related protein 1) in S2 cells (from UniProt Q9VQE0 1-735)
,binds,ROCK-Fg (Drosophila Rho kinase with 3xFg tag) (from UniProt Q9VXE3 1-1390) (enzyme)
